The results in this text go back to publication PMC10127613 (mBio, 2023).

No signal at the amounts used counts as a negative. Where a protein sequence is shown, tags need not be part of it. Weaker means in comparison with the reference protein, sequence or condition of that experiment.

The data set deals with T1, Clr (Sinorhizobium meliloti) (UniProt Q92SD2).
T1 sequence (looked up): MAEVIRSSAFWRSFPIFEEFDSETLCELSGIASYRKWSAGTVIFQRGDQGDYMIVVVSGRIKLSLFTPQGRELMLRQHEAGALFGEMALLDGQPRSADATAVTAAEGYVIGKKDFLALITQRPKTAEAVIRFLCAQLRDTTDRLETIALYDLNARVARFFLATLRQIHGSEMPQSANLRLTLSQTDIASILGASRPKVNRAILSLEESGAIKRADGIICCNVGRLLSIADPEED
Nature of the data set: EMSA. The following applies: 1 mM cAMP, EMSA: 2 mM HEPES pH 7.0, 30 mM NaCl, 50 mM KCl, 850 ng salmon sperm DNA, 1 ug BSA, 20 ng Cy3-DNA, 3 ug Clr in 10 uL, room temperature, recombinant protein, residues 1-234, protein details: C-terminal His6 (pET36b, NdeI/XhoI), label: 5'-Cy3 on reverse strand. For orientation: A gel shift assay detects complexes by their altered migration in electrophoresis.

For the sequence “AGCGGATAACAATTTCACACAGGAAACAGCATATGACCATGATTACGCCAAGCTCGAAATTAACCCTCACTAAAGGGAACAAAAGCTGGAGCTCTTAAGCTTAAGCGGATCCAGGCACTGCTTGAAACTCTGGAACGTGCCGAACGCCAGTCGCATAAATGACGATCGCTCCGTGTCCCTCCGGCAACAGGCATGCGCCCTGGCGTCGTGCCGCGCGGAACAAAAGGCGCCAATCGGCGTTTTGGCGACAATAACAAGCGCCGCGGCGGCGGCATCCATGGGAGATGGGAATGCAAGCCTCGGCGGCGCCTGTTGTGATCACCCCTCCAGTGGGGATCGACGCTCAGATGAGCGTCGCAGCGGCTCCAGCCATGGCCTCGGCGCGCATTTCCGCCGAAGACTGTGCTCGGCAACTCCAGCAGTTCTGTATCAACCCTGAATAGGAACGCGTCATGAAGAAGCTACTCGTCGTCTCTAGACTGCAGATGGTGAGCAAGGGCGAGGAGCTGTTCA (double strand) [SMc00795 / SMc00796]”, the binding result was “binds more weakly”.
“AGCGGATAACAATTTCACACAGGAAACAGCATATGACCATGATTACGCCAAGCTCGAAATTAACCCTCACTAAAGGGAACAAAAGCTGGAGCTCTTAAGCTTACGTCGTAGTCTTCCCTGACGCGCACCGTGAACCCGAGAAGCGTCCCGGTCTCGAGCAGGCGGTCCAGGCGATTTTGCACGGTACCACGCGCCACGCCCAGCGCGTCGGAAAGTTTGGAAAGCGATGCCCGCCCGTCGGCGCGCAGATGCGCAATGATCCGGCGGTCCAGATCATCCGGGGTGTATTTTGCAACTGCTGAATCGCCAACTCCTGTTCTGCTCATATCGCACAATCCGACTGGAAAAATTGCTCAGTTCGGTGCCGAAAATAGCACATCTTTGCGCTTTCGACCAGCGCGCTCAATCGCTACCCTGTCCTGGAATACAGCAAGCCGCCAAGAGGAACCTCCATGTTCTCCCCGCTTCCCTCACTAGACTGCAGATGGTGAGCAAGGGCGAGGAGCTGTTCA (double strand) [ocd]”: the binding result is “binds more weakly”.
The same measure for “AGCGGATAACAATTTCACACAGGAAACAGCATATGACCATGATTACGCCAAGCTCGAAATTAACCCTCACTAAAGGGAACAAAAGCTGGAGCTCTTAAGCTTAGCCAGTTTCGAAAGGGGCAGACCGCGGGTGGCGTACAAAAATTGCTGAAACTAACGAAGAGCCGCCAAGCGAGATATCGTGCCGTACTGGACCGGATCACGTTCGTCGGGCTTCTACTTGTTGTGCTCTAGTTTCTCAAGCATTCACGCCATATTCATCAATACAAAAAGTCACCCACGGAATCCCAAACGATCTGTAAAAGTTGAGGATGAGTGCACCATGATTCAGAAAATTCTTATTTTATATCGAGACAAATCTTTGCGTTCTGAGGGAGATTCGTGTTGCGGCGCCGCGACGTTGAATTTTTTGCGAAAATATTCGGTAATCGATTAACAAATATGTTTCGTCGATGATCGATAGTATTTGTTTACTTTATTGGCTTTTGAGCGCACTGTAAAAATCTGGATTGCTATTGGCTCCTGGTCTAGACTGCAGATGGTGAGCAAGGGCGAGGAGCTGTTCA (double strand) [SMa1635]”: “binds more weakly”; for “AGCGGATAACAATTTCACACAGGAAACAGCATATGACCATGATTACGCCAAGCTCGAAATTAACCCTCACTAAAGGGAACAAAAGCTGGAGCTCTTAAGCTTAGTCGAGCGCGGCTTCAAATCGGGTGAGATGCGTTCACGCGACTCGAAGTACGCGCCGACCGATATCGATTGCCCTTCCGCCAGCGGTCCGCTCCTCCCGAGCCCGCATGGCGACGTTGTAACATTTGTCTTTTTTTCGGGCTGCCGCAACCGTTTCGCGCCACAAGGGGCAAAAAAATGCGAGCGCGTATGTAACGCCGGAAACAGCGCCTTCATGTTCCGTTCAGGAAAGATCGCATTATGTTGCATAAGAACGATCTCGCCGTATCCGTGCATTTTCCTCGGCGGCGGGTTATGTTCCGAATGCAAGTTCAAGTGGAGGGCCGCGGTTCGCACCCTCCCATCACTATGGGGCGGACGAGGCGGCACGCTGAATCCGTCGAAATCGGAGAGGACATCATGAAGAAAGCCATCGCGCTTGTGTCTAGACTGCAGATGGTGAGCAAGGGCGAGGAGCTGTTCA (double strand) [SMc03100 / SMc03101]”: “binds”; for “AGCGGATAACAATTTCACACAGGAAACAGCATATGACCATGATTACGCCAAGCTCGAAATTAACCCTCACTAAAGGGAACAAAAGCTGGAGCTCTTAAGCTTCATCGATGAGGGGGACATCGTTCTGGCGATGCTGTGGCATGCCCGATCTCTTATTGAACTGATTGCCGAGCGGCGGCGTGCCGGCAATCTGGTCAGGAATCGGGTGGAAACACGCCGGCAATTGGCGAGACTTCCAGCCAGGGTGCGAAACGACCTGTTACCCGCGGAACAGCAGCCGATCAGAGCATCCGATAGAAAGGCTATAGCGGGCGAAATCAATCACGATGTTTGATGAATTACATCAAACATATTCGTTTGAATGATCAATCGCGTTGCACCATAACGTCCATGGTCGCGACCTTTTGAGGAACTCAGAAGGAACCAGCAATGTCTATGAACGAGCATTCGTCATCCGCATCTAGACTGCAGATGGTGAGCAAGGGCGAGGAGCTGTTCA (double strand) [SMc04163 / SMc04164]”: “binds”.
Consider “AGCGGATAACAATTTCACACAGGAAACAGCATATGACCATGATTACGCCAAGCTCGAAATTAACCCTCACTAAAGGGAACAAAAGCTGGAGCTCTTAAGCTTCCGACTGGCACATCTGAGTTAGGAAAGCAGACCTGAACCAGGAAAGAGGTTTCCAGCGGCCGGCAGCCCCAAGGCTCTGCCGGTCAGAATGGATCGACTGAACCCGCTTTCGCTAACCATTCTTTACACCGCGCATGCGTTCTCTTTGATGAAGGACCAGCTCCTCATCAAGCATCGACGTGCCGCGAAGACGTCGGTGCATTCAGAATCTTTCGCAAGGGCAAACGCTCACTTGGGGCGTTATCACCCTGCAGACCGGTTGGGCTCGTTGACAGTTTCATGGGACAAGAAGGGAAACGGGACGAAGTACCCCCGATCGAGATCTCCGGGAAATCGCCAAACTTGTTCCCTTAGGAACTGCGGGGATTTTCAGTAACTGTCATAAATGAGAGCCTAGAACGGAAATCTGCAGAAACAGCTCGTGCACCAAAGGGAAAGCGCACATGACGTGAATGGACTAGACTGCAGATGGTGAGCAAGGGCGAGGAGCTGTTCA (double strand) [SMa06349]”, for which the binding result is reported as “binds”.
For “AGCGGATAACAATTTCACACAGGAAACAGCATATGACCATGATTACGCCAAGCTCGAAATTAACCCTCACTAAAGGGAACAAAAGCTGGAGCTCTTAAGCTTCGTCTGCAACCGAGAACATTCAGGTCTCGATTTTTGCTGGCCGTGCCGCGAAATCCGGGGTATTGTCAAGATCGTGACGCCCTTCGTTTTTGATGCGGGCGTATTGACATAGTACCTGCGACTTCATCTGCGCCGCGGCATGCCCGAGGGCGCTGGTTAAAGACAACGTGCTTGTGCAGCCGAAGTAGATCTGGGTAGCATTGAACTAATTCATTGCGCCTTATTCAATATTTTACTAAAGTAACAAAATATAGAAAATTTTTTAATATTAGCAGGTTTCCATGACGACATTCGTTCCCGATGGCTCTAGACTGCAGATGGTGAGCAAGGGCGAGGAGCTGTTCA (double strand) [SMb21240]” the value was “binds more weakly”; for “AGCGGATAACAATTTCACACAGGAAACAGCATATGACCATGATTACGCCAAGCTCGAAATTAACCCTCACTAAAGGGAACAAAAGCTGGAGCTCTTAAGCTTTCGACTATTGCCCTGCCGATGCGTCGGGCGCCGCCGGTAACGAGCGCCGCCTTGAGTGTCCTTTTCAACGTTTCGTCCCGTTCTTCGAATCCTGATGCCGAGTGGCAGAAGATATAGGCTGGAAACGCTCGCCGGAACTCTCGCCGGACGATTCATTTCTGAAAAATTAACGCGGAAGCCGTAATTTGCATCAGTTTGTATTGCTATAGTATATCTTTCGTTAATATTGAATCGTGGTTAATAAAGTACCTGTGTCTGCGCTGCAACATCGCATTTCAGTCGCGTTGCCGCCACTAAAATTTCACATTTTGGCTCTTGAGATTCCTCATTTCCTGATCAATTTCGGGTCAACCGGGCGGGTTAATTGCAGATGTCCGGTGTTCCGCTGAGAAACAACTAAAACGGAACGCCGGTTCGAAAGGAGAATAGTATGCGTACGCTCACCACCTCTAGACTGCAGATGGTGAGCAAGGGCGAGGAGCTGTTCA (double strand) [ropB1 / SMc00603]”, “binds more weakly”.
On to “AGCGGATAACAATTTCACACAGGAAACAGCATATGACCATGATTACGCCAAGCTCGAAATTAACCCTCACTAAAGGGAACAAAAGCTGGAGCTCTTAAGCTTTGCACAACAGCTGCGGCGATCTTTGCACGTCTGCCGCTGTAGGCTGGTACCACTTTGCGACGCGCCCTTGCGCGTCGTTTTCATGCGTGAAGTCGCTCTGTCCCCTCTGCGGCGTTTCCTTCGACACTGCGATCCCTTTTCCTGCGCCTTTGCAGCCCCCAGACCCACAACGCGGCCGCGCGCCGTCACCTCGACCAGGCCGATGACGGACTTCCACCGAGGGCGTTGCGGACAAGCGTACTTTTCCCTTCCCGAATCCGCGCTATAGTCACTGGGGGTTTGGCCCAAGGAAATGTCGCATGACGCTCACCCTCTATCTTTCTAGACTGCAGATGGTGAGCAAGGGCGAGGAGCTGTTCA (double strand) [gst10]”, for which the binding result is recorded as “no binding”.
